Measurements published in patent publication US20230338467A1.
Results are given in words; binding and its absence hold for the method and conditions named. Binding seen in cells or lysates may run through a third protein. Binding can be weak; no strength is given.

By UniProt entry, the sequences of proteins in these tests, tags left out. Where a name states a change or a piece, a line headed by the entry shows the natural chain unless it says otherwise.
UniProt P15692: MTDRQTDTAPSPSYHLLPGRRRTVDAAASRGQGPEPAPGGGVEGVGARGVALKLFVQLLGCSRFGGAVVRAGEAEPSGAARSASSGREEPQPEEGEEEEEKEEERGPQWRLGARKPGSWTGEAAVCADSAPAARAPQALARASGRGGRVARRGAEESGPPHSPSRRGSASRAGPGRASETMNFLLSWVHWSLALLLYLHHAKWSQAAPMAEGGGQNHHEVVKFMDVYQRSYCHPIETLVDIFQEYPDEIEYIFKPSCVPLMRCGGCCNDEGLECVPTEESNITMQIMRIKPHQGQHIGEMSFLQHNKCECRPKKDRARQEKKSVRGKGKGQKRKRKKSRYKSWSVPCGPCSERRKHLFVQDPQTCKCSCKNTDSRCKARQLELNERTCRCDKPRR

Legend:
VEGF-A [1] = target: VEGF-A (UniProt P15692); experiment: co-IP in endothelial cells and IVTT (figure legend)
VEGF-A [2] = target: VEGF-A (UniProt P15692); experiment: co-immunoprecipitation in endothelial cells (FIG. 7A)
VEGF-A [3] = target: VEGF-A (UniProt P15692); experiment: in vitro transcription-translation coupled co-IP immunoblot assay (IVTT) (FIG. 7B)

Measured: binding

B1: Fat Specific Protein 27 (FSP27) (protein, UniProt Q96AQ7 1-238, looked up)
chain: MEYAMKSLSLLYPKSLSRHVSVRTSVVTQQLLSEPSPKAPRARPCRVSTADRSVRKGIMAYSLEDLLLKVRDTLMLADKPFFLVLEEDGTTVETEEYFQALAGDTVFMVLQKGQKWQPPSEQGTRHPLSLSHKPAKKIDVARVTFDLYKLNPQDFIGCLNVKATFYDTYSLSYDLHCCGAKRIMKEAFRWALFSMQATGHVLLGTSCYLQQLLDATEEGQPPKGKASSLIPTCLKILQ
binds: VEGF-A [1] | VEGF-A [2] | VEGF-A [3]
